# Measurements: PubChem BioAssay AID624297 (National Center for Advancing Translational Sciences (NCATS), 2012)
# Values joined by “and” are separate entries in the source; they are usually repeats but may differ in a detail not shown here. Equal values may be shown once. In all, about 340,000 compounds went through this assay and about 6,200 (1.8%) were called active. The shares of active, inactive and inconclusive entries below differ from those in the screen. The call rests on the fitted dose curve; in most records, active means well fitted activation curve with a large enough effect; inconclusive means small, poorly fitted or top-dose-only effect; inactive means no such curve, though single readings can be large or run the other way. Potencies of inconclusive entries are doubtful fits and often do not repeat.
# Experiment: A quantitative high throughput screen for small molecules that induce DNA re-replication in SW480 colon adenocarcinoma cells. Further: nearly all actives have a fitted effect of over 55% in size. On re-replication activation: % of control where 0% means no effect.
# Settings: Hoechst DNA content imaging, 48 h; re-replication activation: at 46.1 µM (top of the series)
# How it was run: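 Image-based read-out: total Hoechst fluorescence of nuclei (405 nm excitation, 500-530 nm emission), with hits raising the fraction of high-intensity nuclei. SW480 colon cells incubated 48 hr with compounds at 37 C.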
# Potency means the concentration at half of the fitted maximal effect.
Compound,Potency,re-replication activation
O=c1c2cn[nH]c2nc(SCc2ccccc2F)n1-c1ccc(Br)cc1,"inconclusive: 29.1 µM [activator, partial curve, poor fit]",
CN1CCN(c2ccc(S(=O)(=O)N3CCCCC3)cc2NC(=O)/C=C/c2ccc(OC(F)F)cc2)CC1,"inconclusive: 23.1 µM [activator, single point]",
COc1ccc2nc(C)cc(SCC(=O)N/N=C/c3ccc(O)cc3O)c2c1,"inconclusive: 4.11 µM [activator, partial curve, poor fit]",
COc1cc(/C=C2\CCCc3c2nc2ccccc2c3C(=O)O)cc(Cl)c1O,,inactive: -2.95%
CCOC(=O)Cn1nc(C)c(NC(=O)CCc2ccc(OC)cc2)c1C,,inactive: -4.82%
COc1ccc(C(C)(C)C)cc1NC(=O)c1[nH]c(C)c(C(C)=O)c1C,"inconclusive: 23.1 µM [activator, single point]",
Cc1cc(C)cc(C(=O)OCC(=O)NCc2ccco2)c1,"inconclusive: 29.1 µM [activator, single point]",
COc1ccc(N2CCN(C(=O)c3cc4c(s3)-c3ccccc3S(=O)(=O)C4)CC2)cc1,,inactive: -2.13%
CC(=O)OCCNc1cc(SCc2ccco2)c2nonc2c1[N+](=O)[O-],"inconclusive: 20.6 µM [activator, single point]",
O/N=C/c1cc2ccccc2n1Cc1ccccc1F,,inactive: 2.22%
Cc1ccc(NC(=O)[C@@H]2CCCN2S(=O)(=O)c2ccccc2F)cc1S(=O)(=O)N1CCOCC1,,inactive: 4.68%
O=C(c1cc(COc2ccc(F)cc2Cl)on1)N1CCCC(OCc2cccnc2)C1 (stereo not given),,inactive: -7.17%
CC(C(=O)N1CCc2ccccc21)N1CCN(c2cccc(C(F)(F)F)c2)CC1 (stereo not given),,inactive: -12.1%
COc1ccc(-c2csc(Nc3cc(C)ccn3)n2)cc1C,"inconclusive: 6.51 µM [activator, single point]",
O=C(NCCSSCCNC(=O)c1ccccc1)c1ccccc1,"inconclusive: 29.1 µM [activator, single point]",
CCN(CC)c1ccc(C(=O)OCc2cc(=O)oc3cc(O)ccc23)cc1,,inactive: 0.0247% [at 9.22 µM]
Oc1c(C(Nc2nc3ccccc3s2)c2ccco2)ccc2cccnc12 (stereo not given),"inconclusive: 9.2 µM [activator, partial curve, poor fit]",
Cc1cnn(C(=S)NCCc2ccccc2)c1,,inactive: -5.29%
COc1ccc(C)cc1S(=O)(=O)n1ccnc1C,,inactive: 6.79%
O=C(Nc1ccccc1-c1nc2ccccc2[nH]1)c1ccc(S(=O)(=O)N2CCCCC2)cc1,,inactive: 4.57%
Cc1cccc(C)c1OCCNC(=O)c1ccc2ccccc2n1,,inactive: -1.33%
O=C(NCCN1CCN(C(=O)c2ccc([N+](=O)[O-])cc2)CC1)C(=O)Nc1ccc(F)cc1,,inactive: 2.52%
CC(=O)N=c1c(C#N)cc2c(=O)n3cccc(C)c3nc2n1CCCOC(C)C,active: 20.6 µM,
COc1ccc(CC(=O)Nc2nc(C(C)(C)C)cs2)cc1,"inconclusive: 29.1 µM [activator, partial curve, poor fit]",
O=C1c2cccc3cccc(c23)C(=O)N1c1ccc2ncccc2c1,"inconclusive: 35.5 µM [activator, single point]",

Compound,Potency,re-replication activation
Cc1cccc(Nc2nc(NCc3ccco3)nc(N)c2[N+](=O)[O-])c1,,inactive: 11.8%
COc1cccc(CNC(=O)c2cccs2)c1,"inconclusive: 20.6 µM [activator, single point]",
Cc1cccc(NS(=O)(=O)c2ccc(C(=O)NCC3(N4CCCCC4)CCCCC3)cc2)c1C,"inconclusive: 20.6 µM [activator, single point]",
O=C(CCCN1C(=O)/C(=C\c2ccccc2)SC1=S)Nc1ccc(O)cc1,"inconclusive: 29.1 µM [activator, single point]",
Oc1c(Br)cc(Br)c2cccnc12,"inconclusive: 13.3 µM [activator, full curve] and inconclusive: 116 nM [activator, full curve, poor fit]",
COc1ccc(F)c(CN(C)CC2CCCN(CCc3ccc(F)cc3)C2)c1 (stereo not given),,inactive: 9.47%
COc1cccc(/C=C2\SC(=S)N(CCCC(=O)NC3=NCCS3)C2=O)c1,,inactive: -14.4%
CC(C)(C)c1ccc(CCC2OCC(C[N+]3(C)CCOCC3)O2)cc1 (stereo not given),,inactive: 20.1%
Cc1cc(=O)n2c(sc3ccccc32)c1C#N,active: 23.1 µM,
CCOC(=O)n1c(=O)n(Cc2ccc(OC)cc2)c2ccccc21,"inconclusive: 29.1 µM [activator, single point]",
Cc1onc(C(=O)N2CCN(c3ccccc3)CC2)c1[N+](=O)[O-],"inconclusive: 18.4 µM [activator, single point]",
COc1cc(NCc2ccccc2)c2ncn(C(C)C)c2c1,"inconclusive: 29.1 µM [activator, single point]",
COC(=O)c1cc(OC)c(OC)cc1N1C(=O)CC(C)(C)CC1=O,,inactive: -0.971%
CCOc1ccc(C(=O)CC(C(=O)O)N2CCCCC2)cc1 (stereo not given),"inconclusive: 18.4 µM [activator, single point]",
Cc1cc(-c2ccc(C(C)C)c(S(=O)(=O)N3CCC(C)CC3)c2)on1,,inactive: -0.665%
CN(CCNC(=O)c1ccc(CS(=O)(=O)c2c(Cl)cccc2Cl)o1)CCc1ccccc1,"inconclusive: 6.51 µM [activator, single point]",
Cc1csc(NC(=O)c2cccc(C)c2C)n1,,inactive: -2.52%
CCCCN(C)CC(O)Cn1cc(/C=C/C(=O)c2ccc(C)cc2)c2ccccc21 (stereo not given),"inconclusive: 25.9 µM [activator, single point]",
CCn1c(CN2CCN(CCO)CC2)nc2ccccc21,"inconclusive: 20.6 µM [activator, single point]",
Cc1ccc(OCC(=O)N2CCc3ccccc3C2)cc1,,inactive: 2%
CCn1c(CNC(=O)c2ccc(F)cc2)cc2ccccc21,,inactive: 2.2%
O=C(NC(=S)Nc1ccc(CN2CCOCC2)cc1)c1cccc(F)c1,,inactive: -5.75%
CN(C)c1cccc(C(=O)Nc2nc3ccccc3[nH]2)c1,"inconclusive: 29.1 µM [activator, single point]",
COc1cc2c(cc1OC)-c1cc(Nc3ccc(C(=O)O)cc3)nc(=O)n1CC2,,inactive: -4.83%
CNC(=O)c1c(NC(=O)C2=COCCO2)sc2c1CCN(C(=O)OC)C2,,inactive: -3.22%

Compound,Potency,re-replication activation
Brc1ccccc1-c1nnc2sc(-c3ccc4c(c3)OCCO4)nn12,"inconclusive: 20.6 µM [activator, single point]",
O=C(CSc1nc2ccccc2n1CCc1ccccc1)c1ccc(O)c(O)c1,"inconclusive: 29.1 µM [activator, partial curve, poor fit]",
CCOc1cccc(/C=N/NC(=S)NCCN2CCOCC2)c1O,active: 1.46 µM,
COCc1c(C(=O)OCC(=O)Nc2ccc(OC(F)F)cc2)oc2ccccc12,"inconclusive: 29.1 µM [activator, partial curve, poor fit]",
CC(C)c1csc(CN2CCCC(CNC(=O)c3cccc4ccccc34)C2)n1 (stereo not given),"inconclusive: 23.1 µM [activator, single point]",
COc1cc(NC(=O)CN2C(=O)NC(C)(c3ccc4ccccc4c3)C2=O)c(C)cc1[N+](=O)[O-] (stereo not given),"inconclusive: 32.6 µM [activator, partial curve, poor fit]",
CON(C)S(=O)(=O)c1ccc2c(c1)N(Cc1ccc(C)cc1)C(=O)C1CCCN21 (stereo not given),,inactive: -2.77%
Cc1cc(C(=O)NCCN2CCN(c3cccc(Cl)c3)CC2)n(-c2ccccc2)n1,active: 8.2 µM,
N#Cc1nc(COc2cccc(Cl)c2)oc1NCCN1CCOCC1,,inconclusive: 54.3% [activator]
Cc1ccc(NC(=O)c2c(-c3c(F)cccc3Cl)noc2C)cc1F,,inactive: -0.0402%
Cc1cccc2cc3c(N)c(C(=O)N4CCOCC4)sc3nc12,active: 3.55 µM,
CSc1ccc(/C=C/c2cc(=O)c3ccccc3[nH]2)cc1,,inactive: 13.2%
NNC(=O)c1sc2nc(N3CCOCC3)c3c(c2c1N)CCCC3,active: 16.4 µM,
COc1ccc(OC)c(-n2c(=O)c3ccccc3c3ccccc3c2=O)c1,"inconclusive: 3.26 µM [activator, full curve, poor fit]",
Cc1nc(C)c(C(=O)OCC(=O)N(C)c2ccccc2)s1,,inactive: -2.57%
CC(=O)c1[nH]c(C)c(C(=O)N2CCCC(Nc3cccc(F)c3)C2)c1C (stereo not given),"inconclusive: 0.146 µM [activator, full curve, poor fit]",
CCOc1ccc(N=C2NC(=O)CS2)cc1,"inconclusive: 0.517 µM [activator, full curve, poor fit]",
COC1=CC(=O)C(C2CC(=O)c3c(O)cc(O)cc3O2)=CC1=O (stereo not given),"inconclusive: 18.4 µM [activator, partial curve, poor fit]",
N#C/C(=C\c1ccc(-c2ccccc2)o1)C(=O)Nn1cnnc1,,inactive: 8.05%
COc1cc(/C=N/NC(=O)c2ccc(CN(C)S(=O)(=O)c3ccc(C)cc3)cc2)ccc1O,"inconclusive: 29.1 µM [activator, single point]",
CC(C)(C)c1ccc(C(=O)OCC(=O)N2CCC(c3ccccc3)=N2)cc1,"inconclusive: 0.58 µM [activator, partial curve, poor fit]",
CN(C)/C=C1/C=C(c2ccccc2)OC1=O,"inconclusive: 29.1 µM [activator, single point]",
COC(=O)C(C(=O)OC)C(C[N+](=O)[O-])c1ccc(O)c(OC)c1 (stereo not given),"inconclusive: 29.1 µM [activator, single point]",
COc1ccc(C2NCCCC2c2ccccc2)cc1 (stereo not given),,inactive: -1.86%
Cc1cccc(N=C2NC(=O)/C(=C/C=C/c3ccco3)S2)c1C,,inactive: -0.986%

# Given with bars between the fields: part of the list above.
Compound | Potency | re-replication activation
CCOc1cccc(/C=N/NC(=S)NCCN2CCOCC2)c1O | active: 1.46 µM | 
COc1cc(NC(=O)CN2C(=O)NC(C)(c3ccc4ccccc4c3)C2=O)c(C)cc1[N+](=O)[O-] (stereo not given) | inconclusive: 32.6 µM [activator, partial curve, poor fit] | 
COc1cc(/C=N/NC(=O)c2ccc(CN(C)S(=O)(=O)c3ccc(C)cc3)cc2)ccc1O | inconclusive: 29.1 µM [activator, single point] | 
CN(C)/C=C1/C=C(c2ccccc2)OC1=O | inconclusive: 29.1 µM [activator, single point] | 
COC(=O)C(C(=O)OC)C(C[N+](=O)[O-])c1ccc(O)c(OC)c1 (stereo not given) | inconclusive: 29.1 µM [activator, single point] | 
